From paper PMC7791067, “PLPP/CIN-mediated NF2-serine 10 dephosphorylation regulates F-actin stability and Mdm2 degradation in an activity-dependent manner” (Cell Death & Disease, 2021)
No constants are given. Whether binding was seen depends on the method and setting. Binding seen in cells or lysates may run through a third protein. Some binding calls cover weakened binding; strength is not graded here.

Target: T1, NF2, endogenous in mouse hippocampus (mouse (endogenous in hippocampus)) (UniProt P46662)
T1 sequence: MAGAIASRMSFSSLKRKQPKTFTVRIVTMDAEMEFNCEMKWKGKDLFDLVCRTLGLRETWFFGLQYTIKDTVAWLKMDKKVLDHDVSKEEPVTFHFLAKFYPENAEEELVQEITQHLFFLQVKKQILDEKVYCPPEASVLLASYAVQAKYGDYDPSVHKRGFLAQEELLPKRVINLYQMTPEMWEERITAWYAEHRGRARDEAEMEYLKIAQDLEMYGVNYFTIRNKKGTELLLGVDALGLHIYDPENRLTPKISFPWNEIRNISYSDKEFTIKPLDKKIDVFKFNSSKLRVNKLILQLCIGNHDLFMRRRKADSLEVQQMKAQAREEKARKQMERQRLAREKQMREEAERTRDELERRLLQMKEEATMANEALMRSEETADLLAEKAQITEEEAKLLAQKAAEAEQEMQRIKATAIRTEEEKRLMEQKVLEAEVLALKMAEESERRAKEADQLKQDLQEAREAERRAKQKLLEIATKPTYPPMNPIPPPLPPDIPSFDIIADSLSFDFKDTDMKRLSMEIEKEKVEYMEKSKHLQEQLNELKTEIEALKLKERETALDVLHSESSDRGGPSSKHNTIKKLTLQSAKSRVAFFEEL
Test: co-IP; hippocampal lysates in RIPA buffer (150 ug total protein) of WT, PLPP/CIN^Tg and PLPP/CIN^-/- mice, with saline or 2 h after kainic acid (25 mg/kg i.p.); NF2 or PLPP/CIN antibody and protein G sepharose, 4 °C overnight; western blot

B1: PLPP/CIN, in mouse hippocampus (enzyme, UniProt P60487 1-292)
chain: MARCERLRGAALRDVLGQAQGVLFDCDGVLWNGERIVPGAPELLQRLARAGKNTLFVSNNSRRARPELALRFARLGFAGLRAEQLFSSALCAARLLRQRLSGPPDASGAVFVLGGEGLRAELRAAGLRLAGDPGEDPRVRAVLVGYDEQFSFSRLTEACAHLRDPDCLLVATDRDPWHPLSDGSRTPGTGSLAAAVETASGRQALVVGKPSPYMFQCITEDFSVDPARTLMVGDRLETDILFGHRCGMTTVLTLTGVSSLEEAQAYLTAGQRDLVPHYYVESIADLMEGLED
binding: binds
